The structures appear in SMILES notation. The list shows a part of the results. These are further read-outs of the screen, such as a control signal, another cell line or another target. No call is given for them. The list favours compounds with an active or inconclusive main result. Words in brackets tell the shape of the fitted curve; partial curves, single points and poor fits give uncertain potencies.

A short description of this test: qHTS Assay to Find Inhibitors of Chronic Active B-Cell Receptor Signaling. The settings on record: ABC-DLBCL IkBa-CBG/CBR reporter, luminescence ratio (green luciferase fused to IkBa over red control in TMD8 lymphoma cells), 4 h. In short, it runs like this: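 TMD8 ABC-DLBCL cells carrying doxycycline-inducible green luciferase fused to IkappaBalpha plus unfused red luciferase were exposed to compounds (up to 46 uM) for 4 hrs at 37C. Activity came from the overlap-corrected green/red luminescence ratio.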

The mark [1] stands for this setting: measured here: CBR red luminescence, cell number.
Setting [2] is: measured here: IkBa-CBG green luminescence.

As usually defined, the AC50 is the midpoint of the concentration-response curve, whichever way the signal moves. For the compound `COC(=O)c1ccc(OCCOCCOc2cccc3ccc(C)nc23)cc1`, the AC50 under setting [1] was 32.6 µM [falling, partial curve, poor fit].

On to `OCCN(CCO)CC(O)Cn1c2ccccc2c2ccccc21` (stereo not drawn), for which the AC50 under setting [1] is 1.58 µM [falling, full curve].

In the case of `Cc1ccccc1NC(=O)Cn1c([N+](=O)[O-])cnc1C`, the AC50 under setting [1] is 23.1 µM [rising, single point].

Consider `Brc1ccccc1Cn1c(-c2cscn2)nc2ccccc21`, for which the concentration at half-maximal activity (AC50) under setting [1] was 4.61 µM [rising, full curve, poor fit].

`Cc1ccc(-n2c3c(cc(C(=O)NCc4ccco4)c2=O)C(=O)CC(C)(C)C3)cc1`: under setting [1], the AC50 was 3.98 µM [falling, partial curve].

On to `CC(O)c1nc2ccccc2n1Cc1nnc(-c2ccc(Cl)cc2)o1` (stereo not drawn), for which, under setting [1], the AC50 was 4.47 µM [rising, full curve, poor fit].

Take `CN(C)c1ccc(C(c2nnnn2CCOC(=O)Nc2ccc(Cl)cc2)N2CCOCC2)cc1` (stereo not drawn): under setting [1], the AC50 was 4.11 µM [falling, single point].

Consider `CN1C(=O)/C(=C2/C=Cc3ccccc3N2CCCS(=O)(=O)O)SC1=S`, for which, under setting [1], the AC50 was 18.4 µM [rising, partial curve, poor fit].

As to `Cc1ccc(S(=O)(=O)Nc2nc(C)c(C(=O)N/N=C/c3ccccc3)s2)cc1`, the AC50 under setting [1] is 6.31 µM [falling, partial curve, poor fit].

Take `O=c1cc(-c2ccc(O)cc2)oc2ccc(O)cc12`: the AC50 runs as follows: under setting [1], 11.2 µM [falling, partial curve, poor fit]; under setting [2], 10 µM [rising, partial curve, poor fit].

With `C(=C\c1ccccc1)/CSc1ccccn1`, the AC50 under setting [1] was 1.12 µM [rising, full curve, poor fit].

For `COc1cc(C(=O)NNC(=O)c2cc(-c3ccccc3)n[nH]2)cc(OC)c1C`, the AC50 under setting [1] is 25.9 µM [falling, partial curve, poor fit].

`Cc1ccc(NC(=S)NC(NC(=O)c2ccccc2)C(Cl)(Cl)Cl)c(C)c1` (stereo not drawn): the AC50 under setting [1] is 18.4 µM [falling, single point].

Take `CCn1c(=O)c2cc(C(=O)NCCC(C)C)sc2c2ccccc21`: the AC50 under setting [1] is 0.708 µM [rising, partial curve, poor fit].

As to `Cc1ccc(NC(=O)c2ccc(OC(=O)COc3cccc(Cl)c3)cc2)cc1`, the AC50 under setting [1] is 1.64 µM [falling, full curve].

`NNC(=O)c1cccc(COCC(F)(F)C(F)F)c1`: the AC50 under setting [1] is 3.16 µM [falling, full curve].

Consider `COC(=O)c1ccc(NC(=O)CN2CCCC2)cc1`, for which the AC50 under setting [1] is 6.51 µM [rising, single point].

As to `Cc1ccc2cc(C(c3nnnn3C3CCCC3)N3CCN(c4ccccc4)CC3)c(=O)[nH]c2c1` (stereo not drawn), the AC50 under setting [1] was 0.0116 µM [rising, full curve, poor fit].

On to `CCOC(=O)N1CCN(S(=O)(=O)c2ccc(F)c(C(=O)Nc3ccc(C)c(Cl)c3)c2)CC1`, for which the AC50 under setting [1] was 29.1 µM [falling, single point].

With `Cc1cc(C)nc(NC(=O)c2cccs2)c1`, under setting [1], the AC50 was 35.5 µM [falling, partial curve, poor fit].

Take `COc1ccc(OC)c(-c2cc(C(=O)N3CCN(c4ccccc4)CC3)no2)c1`: the AC50 under setting [1] is 3.98 µM [falling, single point] and the AC50 under setting [2] is 11.2 µM [falling, partial curve, poor fit].

With `Nn1c(COc2ccccc2)nc2ccccc2c1=O`, the AC50 under setting [1] was 35.5 µM [falling, single point].

As for `Clc1ccc(OCc2nn3c(-c4ccco4)nnc3s2)cc1`, the AC50 under setting [1] is 20 µM [falling, partial curve, poor fit].

On to `CCN(c1ccccc1)S(=O)(=O)c1ccc(Cl)c(NC(=O)COC(=O)c2cc(O)c3ccccc3c2O)c1`, for which the AC50 under setting [1] is 35.5 µM [falling, single point].

As for `O=S1(=O)C[C@@H](O)[C@@H](Nc2ccc(Cl)cc2)C1`, the AC50 under setting [1] was 8.2 µM [rising, partial curve, poor fit].

In the case of `O=S(=O)(c1ccc(-c2csc(Nc3ccc(F)cc3)n2)cc1)N1CCCC1`, under setting [1], the AC50 is 2.31 µM [rising, full curve, poor fit].

`COc1cc(C2C(C#N)=C(N)OC3=C2C(=O)CCC3)cc2c1OCO2` (stereo not drawn): under setting [1], the AC50 is 35.5 µM [rising, partial curve, poor fit].

With `COc1ccccc1CNC(=O)c1cc2c(C)nn(Cc3ccc(F)cc3)c2s1`, the AC50 under setting [1] was 15.8 µM [falling, partial curve, poor fit].

As for `COc1ccc(-c2cc(C(=O)NCCc3ccccc3)c3cc(C(C)C)ccc3n2)cc1`, the AC50 under setting [1] is 6.31 µM [rising, single point].

Consider `CCOc1cc(/C=C2/C(=O)ON=C2C)ccc1OCc1ccccc1`, for which, under setting [1], the AC50 was 12.6 µM [falling, partial curve].

As for `CCOc1ccc(S(=O)(=O)NC(C)(C)C)cc1-c1nc2c(C(C)(C)C)nn(C)c2c(=O)[nH]1`, the AC50 under setting [1] was 28.2 µM [falling, single point].

For the compound `Cc1ccccc1NC(=O)N1CCc2ccccc2C1`, the AC50 under setting [1] is 14.1 µM [falling, partial curve, poor fit].

Turning to `CCOC(=O)c1cc(S(=O)(=O)N2CCN(Cc3ccccc3)CC2)cn1C`, the AC50 under setting [1] was 3.55 µM [rising, partial curve, poor fit].

Take `O=C1CC(Sc2nnc(-c3ccccc3)o2)C(=O)N1c1ccccc1` (stereo not drawn): the AC50 under setting [1] was 23.1 µM [falling, single point] and the AC50 under setting [2] is 25.9 µM [rising, partial curve, poor fit].

As to `Cc1cc(C(=O)Cn2cc(C(F)(F)F)ccc2=O)c(C)n1CC1CCCO1` (stereo not drawn), the AC50 under setting [1] is 29.1 µM [rising, single point].

Consider `O=C(c1ccccc1F)N1CCN(S(=O)(=O)c2ccc3c(c2)OCCO3)CC1`, for which the AC50 under setting [1] was 7.94 µM [falling, partial curve].

Turning to `O=C(Cc1ccccc1[N+](=O)[O-])OCc1cccc([N+](=O)[O-])c1`, the AC50 is, setting by setting: under setting [1], 11.2 µM [rising, partial curve, poor fit]; under setting [2], 11.2 µM [falling, partial curve, poor fit].

In the case of `Cc1ccccc1OCc1nc(-c2ccc(Br)o2)no1`, the AC50 under setting [1] was 29.1 µM [rising, single point].

As to `O=C(O)c1ccc(CSc2nc3ccccc3[nH]2)cc1`, under setting [1], the AC50 is 8.91 µM [falling, partial curve].

Consider `COc1ccccc1N1CCN(S(=O)(=O)CCNC(=O)CC2CCCCC2)CC1`, for which, under setting [1], the AC50 is 18.4 µM [rising, partial curve, poor fit].

On to `CCOCC(=O)Nc1cccc(OC)c1`, for which the AC50 under setting [1] is 0.731 µM [falling, partial curve, poor fit].

Consider `CCCCn1c(=S)[nH]c2ccccc2c1=O`, for which, under setting [1], the half-maximal activity concentration (AC50) was 29.1 µM [rising, single point].

Regarding `CCOC(=O)C1CCN(Cc2cccc(OC)c2)CC1`, under setting [1], the AC50 is 1.03 µM [rising, full curve].

On to `O=C1C(C=NCc2ccccn2)=C(O)c2ccccc21`, for which the AC50 under setting [1] was 11.2 µM [falling, partial curve, poor fit].

`CC1=C(C(=O)OCc2ccccc2)C(c2ccc(Cl)cc2)NC(=O)N1CCCCCC(=O)O` (stereo not drawn): the AC50 under setting [1] is 23.1 µM [falling, partial curve].

For the compound `COc1ccc(NC(=S)NC(=O)c2ccccc2Cl)cc1`, under setting [1], the AC50 was 15.8 µM [rising, single point].

In the case of `CCN(CC)C(=O)CN1C(=O)NC2(CCc3ccccc3C2)C1=O` (stereo not drawn), under setting [1], the AC50 was 4.47 µM [rising, single point].

Regarding `Cc1cccc(NCc2nc(SCC(=O)Nc3ccccc3Br)n[nH]2)c1`, under setting [1], the AC50 was 3.16 µM [rising, single point].

Consider `COc1cc(-c2nn3c(-c4ccccc4)nnc3s2)cc(OC)c1OC`, for which the AC50 under setting [1] was 20 µM [rising, single point].

Take `O=C(NNC(=O)c1cc(Cl)ccc1O)c1cccc(S(=O)(=O)N2CCOCC2)c1`: the AC50 under setting [1] is 5.8 µM [falling, partial curve].

With `CC(/C=C/C=C/c1ccccc1)=N/NC(=O)CNc1ccccc1C`, the AC50 under setting [1] is 0.366 µM [rising, full curve].

With `O=C(Nc1cccc(S(=O)(=O)c2cccc(NC(=O)c3ccco3)c2)c1)c1ccco1`, the AC50 under setting [1] is 15.8 µM [falling, partial curve, poor fit].

`CCN(CC)C(=O)CSc1nc2ncccc2[nH]1`: the AC50 under setting [1] was 17.8 µM [falling, single point].

Regarding `COc1ccc2c3n(nc2c1)CCN=C3c1cc(Cl)c(N)c(Cl)c1`, under setting [1], the AC50 is 0.411 µM [falling, full curve].

Consider `COCCCNC(=S)N/N=C/c1ccc(O)cc1O`, for which the concentration at half-maximal activity (AC50) was 0.562 µM [falling, full curve] under setting [1] and 11.2 µM [rising, partial curve, poor fit] under setting [2].

Regarding `CCNC(=S)N1CCc2cc(OC)c(OC)cc2C1COc1ccc(OC)cc1` (stereo not drawn), the AC50 under setting [1] was 31.6 µM [falling, single point].

Take `CNC(=O)COc1ccc(-c2nn(C)c(=O)c3ccccc23)cc1`: the AC50 under setting [1] was 32.6 µM [rising, single point].

As for `COc1ccc(/C=N/NC(=O)CSc2ccccc2)cc1OC`, under setting [1], the AC50 was 16.4 µM [rising, partial curve, poor fit].

`CCCOc1ccc(C(=O)C(CN2CCCC2)c2ccccc2)cc1` (stereo not drawn): the AC50 under setting [1] is 16.4 µM [falling, partial curve, poor fit].

With `O=C(Nc1nnc(SCc2ccc(F)cc2)s1)c1ccccn1`, the AC50 runs as follows: under setting [1], 3.16 µM [rising, partial curve, poor fit]; under setting [2], 3.16 µM [falling, partial curve, poor fit].

As to `O=C(Nc1ccc2c(c1)OCO2)c1ccc2nc[nH]c2c1`, the AC50 under setting [1] was 16.4 µM [falling, single point].

Consider `Cc1nc2ccccc2n1CCc1nc2c3ccccc3nc(SCC(=O)Nc3ccc(C(C)C)cc3)n2n1`, for which, under setting [1], the AC50 was 1.58 µM [rising, partial curve, poor fit].

The values above are taken from PubChem BioAssay AID493014 (National Center for Advancing Translational Sciences (NCATS), 2011).
